This is one part of the list.
compound: CS(=O)(=O)c1ccc(-c2cnc(N)c(C(=O)Nc3ccccc3)n2)cc1; assay: log2 fold change, soluble protein after heating vs DMSO (PISA); higher = thermal stabilisation; K562 cells, 10 uM, 30 min; active = over 0.2 and 3.5 SD of the protein, either way, in both replicates (recomputed)
Summary of the method: (§1)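 K562 cells (2×10^6 cells/mL) were treated with 10 μM compound for 30 min, and aliquots were heated for 3 min over 48°C-58°C. Pooled aliquots were extracted in PBS with 0.5% NP-40 at 4°C, and the supernatant after 21,000xg for 90 min was measured by TMTpro 16plex LC-MS/MS with channel sums equalised. Reported thermal stability, relative to control samples and from duplicates, is a log2 fold change.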

The chains behind the UniProt entries cited, without tags or fusion partners. Where a name states a change or a piece, a line headed by the entry shows the natural chain unless it says otherwise.
UniProt O00560: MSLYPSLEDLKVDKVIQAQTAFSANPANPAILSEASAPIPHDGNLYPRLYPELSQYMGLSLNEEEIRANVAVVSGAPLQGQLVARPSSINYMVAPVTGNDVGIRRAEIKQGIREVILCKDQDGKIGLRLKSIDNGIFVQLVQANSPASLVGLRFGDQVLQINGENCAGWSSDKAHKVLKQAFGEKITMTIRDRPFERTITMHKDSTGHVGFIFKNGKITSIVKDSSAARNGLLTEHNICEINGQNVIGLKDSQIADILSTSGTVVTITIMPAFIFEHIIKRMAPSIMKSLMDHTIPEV
UniProt O95969: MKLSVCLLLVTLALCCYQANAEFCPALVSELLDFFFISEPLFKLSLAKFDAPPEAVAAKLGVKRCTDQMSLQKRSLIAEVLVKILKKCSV
UniProt O14521: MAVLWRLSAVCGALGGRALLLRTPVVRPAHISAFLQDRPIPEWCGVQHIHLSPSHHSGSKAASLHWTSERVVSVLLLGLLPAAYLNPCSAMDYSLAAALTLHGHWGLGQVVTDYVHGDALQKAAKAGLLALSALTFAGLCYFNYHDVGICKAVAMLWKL
UniProt Q96EU6: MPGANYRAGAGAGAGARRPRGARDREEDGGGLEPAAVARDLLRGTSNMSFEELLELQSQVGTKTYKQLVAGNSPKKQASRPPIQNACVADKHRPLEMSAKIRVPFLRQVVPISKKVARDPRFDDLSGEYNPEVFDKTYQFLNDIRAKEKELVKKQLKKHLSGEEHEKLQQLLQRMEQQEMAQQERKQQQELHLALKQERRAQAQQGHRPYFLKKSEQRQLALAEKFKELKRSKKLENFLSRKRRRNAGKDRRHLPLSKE
UniProt P60903, whole entry, looked up: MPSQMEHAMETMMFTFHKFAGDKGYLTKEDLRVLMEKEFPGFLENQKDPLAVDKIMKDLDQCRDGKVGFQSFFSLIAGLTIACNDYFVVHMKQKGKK
UniProt O75056, whole entry, looked up: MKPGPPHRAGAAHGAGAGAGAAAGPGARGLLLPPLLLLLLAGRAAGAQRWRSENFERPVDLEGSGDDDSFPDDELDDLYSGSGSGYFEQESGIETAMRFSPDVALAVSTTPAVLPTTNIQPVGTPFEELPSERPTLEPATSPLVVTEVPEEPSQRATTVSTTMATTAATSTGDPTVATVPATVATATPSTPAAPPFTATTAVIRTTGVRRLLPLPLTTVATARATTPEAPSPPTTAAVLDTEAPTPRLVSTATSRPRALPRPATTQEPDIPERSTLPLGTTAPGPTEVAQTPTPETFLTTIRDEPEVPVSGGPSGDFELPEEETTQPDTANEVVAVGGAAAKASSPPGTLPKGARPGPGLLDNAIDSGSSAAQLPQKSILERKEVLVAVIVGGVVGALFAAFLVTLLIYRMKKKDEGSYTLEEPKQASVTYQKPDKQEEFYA
UniProt Q9H0E3: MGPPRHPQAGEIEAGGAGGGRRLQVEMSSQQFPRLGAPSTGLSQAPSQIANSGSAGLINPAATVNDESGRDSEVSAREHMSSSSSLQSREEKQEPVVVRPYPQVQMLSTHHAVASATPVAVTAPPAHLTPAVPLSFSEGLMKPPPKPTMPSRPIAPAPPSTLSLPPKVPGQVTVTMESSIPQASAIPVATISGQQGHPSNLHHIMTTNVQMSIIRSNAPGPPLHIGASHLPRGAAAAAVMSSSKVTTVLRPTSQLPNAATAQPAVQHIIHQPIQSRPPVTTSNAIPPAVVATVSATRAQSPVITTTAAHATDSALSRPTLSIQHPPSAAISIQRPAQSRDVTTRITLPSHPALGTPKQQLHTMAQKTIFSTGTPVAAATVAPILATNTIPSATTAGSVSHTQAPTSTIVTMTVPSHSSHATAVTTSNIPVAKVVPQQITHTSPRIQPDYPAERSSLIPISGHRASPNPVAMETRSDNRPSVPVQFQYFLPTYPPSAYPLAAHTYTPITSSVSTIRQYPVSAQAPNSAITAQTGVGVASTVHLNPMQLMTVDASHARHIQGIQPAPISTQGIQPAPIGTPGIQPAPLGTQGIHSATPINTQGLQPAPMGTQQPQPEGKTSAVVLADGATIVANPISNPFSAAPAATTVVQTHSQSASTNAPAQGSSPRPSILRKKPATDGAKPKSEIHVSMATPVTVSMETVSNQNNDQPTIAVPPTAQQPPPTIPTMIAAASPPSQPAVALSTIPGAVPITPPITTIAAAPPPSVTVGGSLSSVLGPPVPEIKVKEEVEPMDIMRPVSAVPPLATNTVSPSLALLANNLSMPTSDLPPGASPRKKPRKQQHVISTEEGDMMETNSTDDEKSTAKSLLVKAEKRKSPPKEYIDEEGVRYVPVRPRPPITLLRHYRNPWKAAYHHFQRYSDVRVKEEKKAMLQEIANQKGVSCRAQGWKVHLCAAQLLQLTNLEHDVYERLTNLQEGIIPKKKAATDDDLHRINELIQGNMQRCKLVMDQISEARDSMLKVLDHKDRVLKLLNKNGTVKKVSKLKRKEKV
UniProt Q9UPU9: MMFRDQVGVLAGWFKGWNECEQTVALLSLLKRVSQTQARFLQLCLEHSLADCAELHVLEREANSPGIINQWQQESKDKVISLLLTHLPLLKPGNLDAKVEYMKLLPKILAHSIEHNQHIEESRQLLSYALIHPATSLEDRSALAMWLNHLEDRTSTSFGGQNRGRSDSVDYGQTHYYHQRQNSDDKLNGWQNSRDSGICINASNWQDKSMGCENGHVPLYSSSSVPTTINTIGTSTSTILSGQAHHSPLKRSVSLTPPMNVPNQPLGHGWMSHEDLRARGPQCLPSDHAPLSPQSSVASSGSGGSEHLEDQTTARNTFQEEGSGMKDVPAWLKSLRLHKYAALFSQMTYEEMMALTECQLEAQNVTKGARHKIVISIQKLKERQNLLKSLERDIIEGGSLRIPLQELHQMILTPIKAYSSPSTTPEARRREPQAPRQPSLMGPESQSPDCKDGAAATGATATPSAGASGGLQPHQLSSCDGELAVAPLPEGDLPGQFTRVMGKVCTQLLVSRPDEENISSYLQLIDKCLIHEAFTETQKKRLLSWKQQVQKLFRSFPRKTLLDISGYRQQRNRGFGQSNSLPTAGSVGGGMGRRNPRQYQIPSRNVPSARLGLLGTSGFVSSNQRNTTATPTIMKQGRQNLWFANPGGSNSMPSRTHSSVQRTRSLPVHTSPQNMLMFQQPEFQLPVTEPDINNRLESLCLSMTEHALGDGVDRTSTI
UniProt Q8IZE3: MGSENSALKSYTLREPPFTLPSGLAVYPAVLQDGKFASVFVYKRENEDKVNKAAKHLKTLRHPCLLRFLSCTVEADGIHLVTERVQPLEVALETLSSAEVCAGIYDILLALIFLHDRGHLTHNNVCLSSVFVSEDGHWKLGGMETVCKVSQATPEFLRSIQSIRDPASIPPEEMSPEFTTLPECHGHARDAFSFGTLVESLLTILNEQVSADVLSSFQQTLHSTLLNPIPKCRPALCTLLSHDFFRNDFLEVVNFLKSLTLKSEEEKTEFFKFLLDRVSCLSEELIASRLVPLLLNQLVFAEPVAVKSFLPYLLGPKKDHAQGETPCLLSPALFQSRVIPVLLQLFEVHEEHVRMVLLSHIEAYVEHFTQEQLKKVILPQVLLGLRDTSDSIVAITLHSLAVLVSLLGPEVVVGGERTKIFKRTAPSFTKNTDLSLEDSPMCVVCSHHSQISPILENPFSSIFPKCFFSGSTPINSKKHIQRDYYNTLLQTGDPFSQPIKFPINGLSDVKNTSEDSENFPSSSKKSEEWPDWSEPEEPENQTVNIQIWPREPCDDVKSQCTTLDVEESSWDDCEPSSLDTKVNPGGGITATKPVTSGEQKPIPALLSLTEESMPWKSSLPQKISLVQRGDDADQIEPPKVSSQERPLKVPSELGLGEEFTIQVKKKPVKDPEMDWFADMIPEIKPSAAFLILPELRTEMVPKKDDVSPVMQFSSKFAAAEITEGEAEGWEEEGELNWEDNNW
UniProt Q99470: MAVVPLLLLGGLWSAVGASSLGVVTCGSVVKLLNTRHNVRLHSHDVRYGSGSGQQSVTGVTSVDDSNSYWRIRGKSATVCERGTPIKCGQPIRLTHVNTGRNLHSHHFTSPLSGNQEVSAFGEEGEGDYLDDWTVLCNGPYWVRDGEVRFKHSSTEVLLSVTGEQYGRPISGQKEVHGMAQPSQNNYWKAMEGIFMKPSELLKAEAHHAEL
UniProt Q96FQ6: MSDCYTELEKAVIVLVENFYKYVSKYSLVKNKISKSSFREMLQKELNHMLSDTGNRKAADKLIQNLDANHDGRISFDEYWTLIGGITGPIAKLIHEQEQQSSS
UniProt Q14160: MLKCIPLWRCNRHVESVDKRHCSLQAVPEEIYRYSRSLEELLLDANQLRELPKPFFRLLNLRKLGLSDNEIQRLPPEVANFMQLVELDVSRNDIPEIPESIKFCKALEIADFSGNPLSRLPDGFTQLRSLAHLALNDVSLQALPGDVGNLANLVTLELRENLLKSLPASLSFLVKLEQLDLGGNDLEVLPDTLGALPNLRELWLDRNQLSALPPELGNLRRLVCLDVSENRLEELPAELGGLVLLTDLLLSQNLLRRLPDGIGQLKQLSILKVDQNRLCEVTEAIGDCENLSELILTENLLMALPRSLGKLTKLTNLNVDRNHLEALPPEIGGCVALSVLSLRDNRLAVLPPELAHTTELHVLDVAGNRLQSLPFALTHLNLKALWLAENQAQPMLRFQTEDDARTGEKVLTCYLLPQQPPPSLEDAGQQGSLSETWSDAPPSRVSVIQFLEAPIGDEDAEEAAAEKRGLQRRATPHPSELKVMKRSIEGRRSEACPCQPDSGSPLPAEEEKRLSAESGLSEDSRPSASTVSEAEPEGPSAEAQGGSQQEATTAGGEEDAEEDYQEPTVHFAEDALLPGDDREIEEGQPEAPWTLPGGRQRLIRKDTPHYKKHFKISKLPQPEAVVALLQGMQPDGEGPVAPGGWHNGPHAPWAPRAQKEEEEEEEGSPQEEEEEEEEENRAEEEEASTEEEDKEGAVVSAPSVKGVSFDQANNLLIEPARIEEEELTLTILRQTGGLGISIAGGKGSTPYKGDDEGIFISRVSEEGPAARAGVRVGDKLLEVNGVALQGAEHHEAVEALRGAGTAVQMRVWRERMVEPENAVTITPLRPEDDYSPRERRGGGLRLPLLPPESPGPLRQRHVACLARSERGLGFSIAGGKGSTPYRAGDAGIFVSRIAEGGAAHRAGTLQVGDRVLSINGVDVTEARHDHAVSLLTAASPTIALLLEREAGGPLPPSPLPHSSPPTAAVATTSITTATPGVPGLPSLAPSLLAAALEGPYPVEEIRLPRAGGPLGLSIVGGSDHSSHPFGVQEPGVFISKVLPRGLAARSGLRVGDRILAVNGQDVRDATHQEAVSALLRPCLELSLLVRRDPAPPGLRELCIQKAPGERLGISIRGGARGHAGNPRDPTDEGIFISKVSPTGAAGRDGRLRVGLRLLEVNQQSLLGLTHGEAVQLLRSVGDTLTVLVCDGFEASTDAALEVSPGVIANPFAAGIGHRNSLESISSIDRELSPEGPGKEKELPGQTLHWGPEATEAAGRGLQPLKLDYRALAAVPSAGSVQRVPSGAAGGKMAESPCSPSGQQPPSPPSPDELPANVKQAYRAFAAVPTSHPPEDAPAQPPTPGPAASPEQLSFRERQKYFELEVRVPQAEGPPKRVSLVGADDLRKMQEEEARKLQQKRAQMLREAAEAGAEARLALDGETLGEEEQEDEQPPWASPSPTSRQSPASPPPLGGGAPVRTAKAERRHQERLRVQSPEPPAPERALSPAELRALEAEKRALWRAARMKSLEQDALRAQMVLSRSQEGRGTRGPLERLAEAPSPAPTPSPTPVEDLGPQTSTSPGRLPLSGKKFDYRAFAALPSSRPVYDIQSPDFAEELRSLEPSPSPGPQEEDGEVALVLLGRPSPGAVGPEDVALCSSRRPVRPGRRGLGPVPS
UniProt Q96IW7: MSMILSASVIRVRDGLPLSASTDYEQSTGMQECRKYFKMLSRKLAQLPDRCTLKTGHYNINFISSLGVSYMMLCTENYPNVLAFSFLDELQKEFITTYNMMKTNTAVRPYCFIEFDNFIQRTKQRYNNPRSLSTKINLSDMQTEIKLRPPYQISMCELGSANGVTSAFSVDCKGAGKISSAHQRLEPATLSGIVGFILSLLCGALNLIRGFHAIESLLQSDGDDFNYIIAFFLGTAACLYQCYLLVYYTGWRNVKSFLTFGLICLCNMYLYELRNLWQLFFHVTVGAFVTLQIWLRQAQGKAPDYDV
UniProt O14828: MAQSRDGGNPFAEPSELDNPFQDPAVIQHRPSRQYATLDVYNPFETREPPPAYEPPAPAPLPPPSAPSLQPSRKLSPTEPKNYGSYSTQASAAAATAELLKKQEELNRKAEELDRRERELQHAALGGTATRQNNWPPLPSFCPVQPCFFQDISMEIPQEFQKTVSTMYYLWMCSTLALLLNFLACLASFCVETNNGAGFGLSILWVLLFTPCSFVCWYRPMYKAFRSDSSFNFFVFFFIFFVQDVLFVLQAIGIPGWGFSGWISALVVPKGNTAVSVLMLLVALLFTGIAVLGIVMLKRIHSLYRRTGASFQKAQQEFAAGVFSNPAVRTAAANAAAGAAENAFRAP
UniProt A6ZKI3: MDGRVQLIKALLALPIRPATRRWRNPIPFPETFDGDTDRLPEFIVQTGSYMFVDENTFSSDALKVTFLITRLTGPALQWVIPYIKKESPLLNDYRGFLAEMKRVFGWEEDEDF

Question: Which log2 fold change does the source give for SDCBP isoform 2 (UniProt O00560) here?
Answer: inactive: 0.093

Question: How did the log2 fold change turn out when SCGB1D2 (UniProt O95969) was run?
Answer: inactive: -0.108

Question: How did the log2 fold change turn out when SCAMP2 (UniProt O15127) was run?
Answer: inactive: 0.019

Question: For SDHD (UniProt O14521), which log2 fold change is on record?
Answer: inactive: 0.007

Question: With RRP36 (UniProt Q96EU6) as the target, how does the log2 fold change read?
Answer: inactive: -0.115

Question: With S100A10 (UniProt P60903) as the target, how does the log2 fold change read?
Answer: inactive: -0.004

Question: For SDC3 (UniProt O75056), which log2 fold change is on record?
Answer: inactive: -0.047

Question: How did the log2 fold change turn out when RSL24D1 (UniProt Q9UHA3) was run?
Answer: inactive: -0.14

compound: C[C@@H](Oc1cc(-c2cnn(C3CCNCC3)c2)cnc1N)c1c(Cl)ccc(F)c1Cl [crizotinib]; assay: as above
Summary of the method: as §1

Question: How did the log2 fold change turn out when SAP130 isoform 3 (UniProt Q9H0E3) was run?
Answer: inactive: -0.016

Question: With SAMD4A (UniProt Q9UPU9) as the target, how does the log2 fold change read?
Answer: inactive: 0.136

Question: Which log2 fold change does the source give for SAFB2 (UniProt K7EQU4) here?
Answer: inactive: -0.244

Question: Which log2 fold change does the source give for SCYL3 isoform 2 (UniProt Q8IZE3) here?
Answer: inactive: -0.118

Question: S100A4 (UniProt P26447) was tested. Which log2 fold change did it give?
Answer: inactive: 0.056

Question: RTN4 isoform 5 (UniProt Q9NQC3) was tested. Which log2 fold change did it give?
Answer: inactive: 0.097

Question: How did the log2 fold change turn out when SDF2 (UniProt Q99470) was run?
Answer: inactive: -0.051

Question: With S100A16 (UniProt Q96FQ6) as the target, how does the log2 fold change read?
Answer: inactive: -0.043

Question: Which log2 fold change does the source give for SCRIB isoform 3 (UniProt Q14160) here?
Answer: inactive: 0.059

Question: SCAI isoform 2 (UniProt Q8N9R8) was tested. Which log2 fold change did it give?
Answer: inactive: 0.052

Question: SEC22A (UniProt Q96IW7) was tested. Which log2 fold change did it give?
Answer: inactive: 0.136

Question: For SCAMP3 isoform 2 (UniProt O14828), which log2 fold change is on record?
Answer: inactive: 0.151

Question: How did the log2 fold change turn out when RTL8C (UniProt A6ZKI3) was run?
Answer: inactive: -0.189

— the supplement of paper PMC10849652
